Data as given in PubChem BioAssay AID1347423 (Functional Genomics Laboratory (NCATS/FGL), 2020).
In all, about 52,000 sequences went through this assay and about 210 (0.4%) were called active.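 How the source made its calls: active means gene whose silencing raises cell survival under the drug, median off-target-corrected z-score across its silencing RNAs 2 or more; inactive means the rest.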 Some of the results follow.

experiment: Resistance to Poly (ADP-Ribose) Polymerase inhibitor: Gene Identification via Genome-wide siRNA Screen; details: mouse BRCA2 R2336H ES cells, olaparib, CellTiter-Glo viability; stronger effect = higher value
In short: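 Mouse BRCA2 R2336H ES cells were reverse-transfected with siRNA (20 nM final), treated at 48 h with 500 nM olaparib, and read by CellTiter-Glo after 72 h. Scores: MAD-based z per siRNA, median per gene, seed off-target correction.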

Sequence | z-score
GAGCUCCUCUGCUUUCUCUTT against Ms4a6d | inactive: 0.127
GGAUGACCAAGAAUGGGAATT against Dap | inactive: 0.0617
GGAAGUCUCUAUCCUGAACTT against Tsp50 | inactive: -0.771
CGUAAUACAAUCCAGUUCATT against Aqr | inactive: -2.58
GGAACAACAUCCGUAUUGCTT against Brsk2 | inactive: 0.414
GCUACCUGAAACACAGCAATT against Hes5 | inactive: 0.585
GGUGGAUUGACUAUGGCAATT against 4932416A15 | inactive: -1.09
GGCCUGUGGAAGAAAUACGTT against Pdhb | inactive: 0.133
GGAGCAUUUCCUCACAACATT against Idh3g | inactive: -0.296
GGCAGCAGAGAACAAGAAATT against 1200009K13Rik | inactive: -1.8
CCAAGAUUGACAUCAUCCGTT against Pkn1 | inactive: 0.344
GCACUUCAGUUUACAAAACTT against D130064H19Rik | inactive: 0.0937
GUUCUGAGAAGAAACCCAUTT against V1rh9 | inactive: 0.811
GCAUGUAGAUACGUGGGUATT against Usp38 | inactive: -2.27
GGAGAUCCUUAAGCUGUUGTT against 2700083B06Rik | inactive: 1.75
GCCAGGCAAAUUACAUCGCTT against 1300007L22Rik | inactive: 0.693
GGGACAGAUCUGAACCUUUTT against Dtr | inactive: 0.311
GCUUUACGAUACUCCAUAUTT against Shd | inactive: -0.181
GCUGGUGUCAUUAGACAGUTT against Npc1l1 | inactive: -0.302
GGCCCUGUUAGUGCUAUACTT against Amh | inactive: -1.25
GGUACAAAUGAAGCUUUGATT against C230095G01Rik | inactive: -0.539
GCCUUAGGACGAGAGAAUATT against 4921530L21Rik | inactive: -0.0354
CCUAAGUACUGUAAGAAUATT against Nmyc1 | inactive: -0.0472
GGAUUCACACAAUGGCAAGTT against Rpl39 | inactive: -1.88
GGGAUGUGUCUAAUGACUCTT against A830058L05 | inactive: -1.02
GGACGUGACCAUGAUGUCUTT against 5330437I02Rik | inactive: -1.31
GUGGCAGCUGACAUGAAUGTT against Plac8 | inactive: -0.198
GGUCAAUUCAAGAUUGAUUTT against 2900006F19Rik | inactive: -0.106

Laid out differently: results already given
Sequence	z-score
GCUUUACGAUACUCCAUAUTT against Shd	inactive: -0.181
GCUGGUGUCAUUAGACAGUTT against Npc1l1	inactive: -0.302
